Reference: US20100184703A1, “USE OF PEPTIDE DERIVATIVES FOR TREATING PATHOLOGIES RESULTING FROM ISCHEMIA” (CHIESI FARMACEUTICI S.p.A., priority 2007, published 2010)
Some results were stated once for a whole list of compounds, not compound by compound. At least one structure is not confirmed: it was looked up by name or label, or the drawing left a doubt. Peptide text beside a SMILES is read from it. * marks the point of attachment. X1 = COC(=O)CC(N*)C(=O)COc1c(F)cccc1F; Quinaldoyl = O=C(c1ccc2ccccc2n1)*

System: rats with permanent ligature of the left coronary artery (PMI)
Experiment: Survival of animals after chronic ischemia (PMI)
Format: in vivo, rat
Settings: intraperitoneal injection 5-15 min before occlusion
Procedure: The analyses were performed on 2 myocardial ischemia models: a chronic ischemia model and an acute ischemia model, followed by myocardial reperfusion after 30 min of occlusion.
Said models were realized with Wistar male rats (180-220 g). The coronary artery was ligatured according to Pfeffer et al protocol.
Briefly, the rats were anaesthetized by intraperitoneal administration of a mixture of Ketamine (150 mg/kg) and Xylazine (15 mg/kg), then intubated and mechanically ventilated. The animals were submitted to a left and median thoracotomy. An occlusion of the coronary artery was done with a silk wire (size: 7.0) at the more proximal point and below the auricle.
In the case of chronic ischemia, the ligature was maintained and the rib cage of the animal reclosed (PMI model for post myocardial infarction).
The effect of the blocking of the caspase activity by Q-VD-OPH or by D1 on animals survival […] after infarction are given on FIG. 3. (A) over a period of 140 days; (B) the injection of the inhibitors or vehicle (DMSO) was carried out by intraperitoneal route 5-15 min before the occlusion of the coronary artery.
The animals having undergone a permanent ligature of the left coronary artery (PMI) were maintained alive during 4-5 months before performing the in vivo and ex vivo functional exploration. The death of the animals during this period was followed up.

| SMILES | early death (<24 hours after the coronary ligature) [%] |
| --- | --- |
| CC(C)[C@H](NC(=O)c1ccc2ccccc2n1)C(=O)N[C@@H](CC(=O)O)C(=O)COc1c(F)cccc1F [Q-VD-OPH] | < 10 |
| COC(=O)CC(NC(=O)[C@H](C)NC(=O)[C@@H](NC(=O)[C@H](CC(=O)OC)NC(=O)[C@@H](NC(=O)c1ccc2ccccc2n1)C(C)C)C(C)C)C(=O)COc1c(F)cccc1F (stereo partly drawn) [D1, (3S,6S,9S,12S)-methyl 15-(2-(2,6-difluorophenoxy)acetyl)-3,9-diisopropyl-6-(2-methoxy-2-oxoethyl)-12-methyl-1,4,7,10,13-pentaoxo-1-(quinolin-2-yl)-2,5,8,11,14-pentaazaheptadecan-17-oate] (Quinaldoyl-VD(OMe)VA-X1) | < 10 |
